32 molecules from PubChem BioAssay AID256 (DTP/NCI, 2004) can be followed below.

The subject of the experiment is CD2F1 mice, L1210 leukemia ip, survival T/C. Description: NCI In Vivo Anticancer Drug Screen. Data for tumor model L1210 Leukemia (intraperitoneal) in CD2F1 (CDF1) mice. Conditions: higher T/C = longer survival. The gist of the method: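 Tumor-bearing mice (transplanted tumor) were split into treated and vehicle control groups, and the measured endpoint of each treated group was divided by that of its vehicle controls.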

The mark [1] stands for this setting: T/C endpoint: mean survival time, dose: 100.0 mg/kg/injection, schedule: Q01DX009 (ip), vehicle: saline with Tween-80.
[2] abbreviates: T/C endpoint: mean survival time, dose: 300.0 mg/kg/injection, schedule: Q01DX001 (ip), vehicle: saline.
Where [3] appears, read: T/C endpoint: mean survival time, dose: 200.0 mg/kg/injection, schedule: Q01DX001 (ip), vehicle: saline with Tween-80.
Setting [4] is: T/C endpoint: mean survival time, dose: 400.0 mg/kg/injection, schedule: Q01DX001 (ip), vehicle: saline with Tween-80.
Where [5] appears, read: T/C endpoint: mean survival time, dose: 400.0 mg/kg/injection, schedule: Q04DX003 (ip), vehicle: saline with Tween-80.
Where [6] appears, read: T/C endpoint: mean survival time, dose: 50.0 mg/kg/injection, schedule: Q01DX009 (ip), vehicle: saline with Tween-80.
The mark [7] stands for this setting: T/C endpoint: mean survival time, dose: 200.0 mg/kg/injection, schedule: Q01DX001 (ip), vehicle: saline.
[8] abbreviates: T/C endpoint: mean survival time, dose: 400.0 mg/kg/injection, schedule: Q01DX001 (ip), vehicle: saline.
Where [9] appears, read: T/C endpoint: mean survival time, dose: 200.0 mg/kg/injection, schedule: Q01DX009 (ip), vehicle: saline with Tween-80.
Setting [10] is: T/C endpoint: mean survival time, dose: 400.0 mg/kg/injection, schedule: Q01DX009 (ip), vehicle: saline with Tween-80.

Molecules are shown by their SMILES. The list does not hold the whole screen: it gathers tests that were run many times, whatever their T/C, doses with no T/C, and many T/C values between a quarter and a half above the control. Other doses and runs of a compound stand elsewhere. T/C gives the treated animals as a percentage of the vehicle group. Some entries give survivors of the animals treated and no T/C: the source files T/C as zero there, which appears to mark a toxic dose or a test without result, not a measured value. Some survivor counts are full or nearly so, which does not show that the dose was tolerated: the source hardly ever lists a survival T/C far under the control, and the zero likely stands for such cases as well. Counts of survivors are from the toxicity check (mostly the fifth day) where no day follows; animals may have died later. Schedules are NCI's codes, read here as Q, the interval in days (D) or hours (H), X, the number of doses. For survival time, this PubChem deposit counts one and a half times the control or more as active, and values a quarter to a half above the control carry no call in these data; other NCI protocols may use other cut-offs.

Turning to `FC(F)(F)c1ccc2c(c1)N(CCCN(CCCl)CCCl)c1ccccc1S2`, where the note is “T/C endpoint: mean survival time, dose: 40.0 mg/kg/injection, schedule: Q01DX001 (ip), vehicle: saline”, the survivor count is reported as 3 of 6.

Consider `C/C(=C\Cl)CNC(C)C`, for which the survivor count is 3 of 6 under setting [1]; 0 of 6 (T/C endpoint: mean survival time, dose: 200.0 mg/kg/injection, schedule: Q01DX001 (ip), vehicle: acetone); 0 of 6 (T/C endpoint: mean survival time, dose: 400.0 mg/kg/injection, schedule: Q01DX001 (ip), vehicle: acetone).

As to `Cc1c2cnccc2c(C)c2c1c1ccccc1n2CCNCCO`, the survivor count (T/C endpoint: mean survival time, dose: 200.0 mg/kg/injection, schedule: Q01DX009 (ip), vehicle: saline sonified) is 3 of 6.

`CCCCCCCCCCCC[S+](C)C`: the survivor count (T/C endpoint: mean survival time, dose: 80.0 mg/kg/injection, schedule: Q04DX003 (ip), vehicle: Klucel (hydroxypropylcellulose) (HPC)) was 0 of 6.

For the molecule `CN(C)C(=O)N(CCCl)N=O`, the T/C (T/C endpoint: mean survival time, dose: 10.0 mg/kg/injection, schedule: Q01DX001 (ip), vehicle: other) is 139 % of control. The survivor count was 3 of 3 (T/C endpoint: mean survival time, dose: 37.5 mg/kg/injection, schedule: Q01DX001 (ip), vehicle: water); 6 of 6 (T/C endpoint: mean survival time, dose: 64.0 mg/kg/injection, schedule: Q01DX001 (ip), vehicle: other); 2 of 3 (T/C endpoint: mean survival time, dose: 75.0 mg/kg/injection, schedule: Q01DX001 (ip), vehicle: water); 2 of 3 (T/C endpoint: mean survival time, dose: 150.0 mg/kg/injection, schedule: Q01DX001 (ip), vehicle: water); 2 of 3 (T/C endpoint: mean survival time, dose: 300.0 mg/kg/injection, schedule: Q01DX001 (ip), vehicle: water).

With `O=C1C2=C(Nc3cc([N+](=O)[O-])ccc3N2)OC1c1ccccn1` (centres undefined), the survivor count (T/C endpoint: median survival time, dose: 200.0 mg/kg/injection, schedule: Q01DX005 (ip), vehicle: Klucel (hydroxypropylcellulose) (HPC)) is 2 of 6.

In the case of `CSc1ccc(NC(=O)N(CCCl)N=O)cc1`, the T/C (T/C endpoint: mean survival time, dose: 5.3 mg/kg/injection, schedule: Q01DX001 (ip), vehicle: other) was 136 % of control.

`CCC(C)C(NC(=O)OCc1ccccc1)C(=O)NC(C(=O)NC(CCC(=O)OC(C)(C)C)C(=O)OC)C(C)C` (centres undefined): the survivor count (T/C endpoint: mean survival time, dose: 200.0 mg/kg/injection, schedule: Q04DX003 (ip), vehicle: saline sonified) was 6 of 6.

As to `NC(=O)c1ccc[n+](Cc2ccccc2)c1`, the survivor count under setting [2] is reported as 1 of 6.

With `CCCCN=Cc1ccccc1O.CCCCN=Cc1ccccc1O.[Cr]`, the T/C under setting [3] was 143 % of control. Besides, under setting [4], the survivor count is 0 of 6.

As for `CC1=C/C(=C/c2ccccc2)CC(C)(C)C1` (tested in a mixture with another compound), the survivor count is on record as 6 of 6 (T/C endpoint: mean survival time, dose: 200.0 mg/kg/injection, schedule: Q04DX003 (ip), vehicle: saline with Tween-80) and 5 of 6 under setting [5].

Take `N#CC(C(=O)O)C1CCCCC1=O` (centres undefined): the survivor count (T/C endpoint: median survival time, dose: 400.0 mg/kg/injection, schedule: Q04DX002 (ip), vehicle: saline with Tween-80) is recorded as 0 of 3.

Consider `Cc1cc(Cl)ccc1NC(=O)Nc1nccs1`, for which the survivor count under setting [6] was 3 of 3.

Regarding `CSc1cc(C)n2nnnc2n1`, the survivor count reads like this: under setting [7], 0 of 3; under setting [8], 0 of 3.

For `COc1ccc(CNCCCCCCNCc2ccc(OC)cc2)cc1`, the survivor count under setting [9] is listed as 2 of 6 and the survivor count under setting [5] is recorded as 0 of 6.

Consider `O=C(Nc1ccccc1)OCCc1c2ccccc2nc2ccccc12`, for which the survivor count (T/C endpoint: mean survival time, dose: 100.0 mg/kg/injection, schedule: Q04DX002 (ip), vehicle: saline with Tween-80) is reported as 3 of 3.

With `COc1cc2c(c(OC)c1OC)-c1ccc(OC)c(=O)cc1[C@@H](NC(=O)CF)CC2`, the T/C by setting is: (T/C endpoint: mean survival time, dose: 0.09 mg/kg/injection, schedule: Q01DX009 (ip), vehicle: saline) 130 % of control; (T/C endpoint: mean survival time, dose: 0.18 mg/kg/injection, schedule: Q01DX009 (ip), vehicle: saline) 143 % of control. For the setting “T/C endpoint: mean survival time, dose: 0.75 mg/kg/injection, schedule: Q01DX009 (ip), vehicle: saline”, the survivor count was 1 of 6.

Turning to `O/N=C\c1cccc2ccccc12`, the survivor count under setting [5] was 3 of 6.

Turning to `c1ccc2c(c1)[nH]c1c2c[n+]2c3c(cccc13)CCC2`, the survivor count runs as follows: (T/C endpoint: mean survival time, dose: 25.0 mg/kg/injection, schedule: Q01DX001 (ip), vehicle: saline) 3 of 6; (T/C endpoint: mean survival time, dose: 100.0 mg/kg/injection, schedule: Q01DX001 (ip), vehicle: saline) 0 of 6; under setting [7], 0 of 6; under setting [8], 0 of 6.

`Cc1cccc(C(=O)C=C(C(F)(F)F)C(F)(F)F)c1`: under setting [6], the survivor count is on record as 6 of 6.

Take `COc1ccc(CCc2nc(CCCCO)[nH]c2C)cc1OC`: the survivor count is 0 of 6 under setting [9] and 0 of 6 under setting [10].

Consider `C=CC(=O)NC(C)(C)CC(C)=O`, for which, for the setting “T/C endpoint: mean survival time, dose: 400.0 mg/kg/injection, schedule: Q01DX009 (ip), vehicle: saline”, the survivor count was 3 of 6.

Consider `Cn1c(=O)[nH]c2c(-c3ccccc3)n[nH]c2c1=O`, for which the survivor count (T/C endpoint: median survival time, dose: 50.0 mg/kg/injection, schedule: Q04DX003 (ip), vehicle: saline with Tween-80) was 3 of 3.

In the case of `CC(=O)OCC1(C)NC(=O)c2ccccc2O1` (centres undefined), the survivor count under setting [10] is 5 of 6.

Take `CN=S(=O)(OCCCCCOS(=O)(=NC)c1ccc(C)cc1)c1ccc(C)cc1` (centres undefined): the survivor count is listed as 4 of 6 (T/C endpoint: mean survival time, dose: 12.5 mg/kg/injection, schedule: Q01DX009 (ip), vehicle: saline with Tween-80); 5 of 6 (T/C endpoint: mean survival time, dose: 25.0 mg/kg/injection, schedule: Q01DX009 (ip), vehicle: saline with Tween-80); 2 of 6 under setting [6]; 1 of 6 under setting [1]; 0 of 6 under setting [9]; 0 of 6 under setting [10].

For `CCCCCC/C=N\N=C(N)N`, the survivor count reads like this: (T/C endpoint: mean survival time, dose: 150.0 mg/kg/injection, schedule: Q01DX001 (ip), vehicle: saline) 0 of 6; under setting [2], 0 of 6.

In the case of `COC(=O)c1cc2c3ccccc3ncc2c2ccccc12`, the survivor count (T/C endpoint: mean survival time, dose: 100.0 mg/kg/injection, schedule: Q04DX003 (ip), vehicle: saline with Tween-80) is reported as 6 of 6.

For the molecule `O=C1C=C(O)c2ccccc2C1=O.[Ag]`, the survivor count was 0 of 3 (T/C endpoint: mean survival time, dose: 50.0 mg/kg/injection, schedule: Q01DX001 (ip), vehicle: saline with Tween-80); 1 of 3 (T/C endpoint: mean survival time, dose: 100.0 mg/kg/injection, schedule: Q01DX001 (ip), vehicle: saline with Tween-80); 0 of 3 under setting [3]; 0 of 3 under setting [4].

As to `COc1cc(CC#N)ccc1C`, the survivor count (T/C endpoint: mean survival time, dose: 100.0 mg/kg/injection, schedule: Q04DX003 (ip), vehicle: acetone) was 0 of 6; the survivor count (T/C endpoint: mean survival time, dose: 200.0 mg/kg/injection, schedule: Q04DX003 (ip), vehicle: acetone) is given as 1 of 6; the survivor count (T/C endpoint: mean survival time, dose: 400.0 mg/kg/injection, schedule: Q04DX003 (ip), vehicle: acetone) was 0 of 6.

On to `CC(=O)NC1=CC(OC(C)=O)C(COC(C)=O)OC1n1cnc2c1c(=O)n(C)c(=O)n2C` (centres undefined), for which the survivor count (T/C endpoint: mean survival time, dose: 100.0 mg/kg/injection, schedule: Q01DX005 (ip), vehicle: distilled water + Tween-80) was 6 of 6.

For the molecule `c1ccc2[nH]c(CN(CCN(Cc3nc4ccccc4[nH]3)Cc3nc4ccccc4[nH]3)Cc3nc4ccccc4[nH]3)nc2c1`, the survivor count reads like this: (T/C endpoint: median survival time, dose: 12.5 mg/kg/injection, schedule: Q01DX005 (ip), vehicle: DMSO) 4 of 6; (T/C endpoint: median survival time, dose: 25.0 mg/kg/injection, schedule: Q01DX005 (ip), vehicle: DMSO) 1 of 6; (T/C endpoint: median survival time, dose: 50.0 mg/kg/injection, schedule: Q01DX005 (ip), vehicle: DMSO) 0 of 6.

As for `Nc1cc(C(=O)Nc2ccc(C3=NCCN3)cc2)cc(C(=O)Nc2ccc(C3=NCCN3)cc2)c1`, the T/C is 133 % of control (T/C endpoint: mean survival time, dose: 15.6 mg/kg/injection, schedule: Q01DX010 (oral), vehicle: saline); 130 % of control (T/C endpoint: mean survival time, dose: 62.5 mg/kg/injection, schedule: Q01DX010 (oral), vehicle: saline); 127 % of control (T/C endpoint: mean survival time, dose: 125.0 mg/kg/injection, schedule: Q01DX010 (oral), vehicle: saline).
